In US20130331333A1 (HADASIT MEDICAL RESEARCH SERVICES AND DEVELOPMENT, published 2013):
Results are given in words; binding and its absence hold for the method and conditions named. For part of these data: Binding seen in cells or lysates may run through a third protein. Some entries that bind do so weakly or less than the wild type. For part of these data: Where a sequence is shown, tags or fusion partners need not be part of it.

Protein sequences, listed by entry. Tags and fused reporters are not part of them. Lines headed by an entry give the natural chain unless they say otherwise; changes in a name come on top. Residues count along the entry.
UniProt P55085: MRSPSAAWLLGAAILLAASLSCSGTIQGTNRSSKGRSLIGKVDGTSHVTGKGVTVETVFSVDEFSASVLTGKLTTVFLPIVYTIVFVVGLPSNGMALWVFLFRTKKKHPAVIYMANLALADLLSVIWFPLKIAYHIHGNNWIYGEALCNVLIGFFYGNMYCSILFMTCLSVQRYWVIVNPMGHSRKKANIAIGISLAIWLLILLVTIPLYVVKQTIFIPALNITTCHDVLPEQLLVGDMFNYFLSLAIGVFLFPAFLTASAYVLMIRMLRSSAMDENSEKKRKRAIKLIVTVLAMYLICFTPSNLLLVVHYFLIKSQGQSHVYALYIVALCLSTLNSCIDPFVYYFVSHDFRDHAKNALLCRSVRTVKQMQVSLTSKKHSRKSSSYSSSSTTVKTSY
wild-type protease-activated receptor 2 (wt hPar2): residues 37-397 of P55085
GST-PAR2 C-tail wt: residues 348-397 of P55085
UniProt P31749: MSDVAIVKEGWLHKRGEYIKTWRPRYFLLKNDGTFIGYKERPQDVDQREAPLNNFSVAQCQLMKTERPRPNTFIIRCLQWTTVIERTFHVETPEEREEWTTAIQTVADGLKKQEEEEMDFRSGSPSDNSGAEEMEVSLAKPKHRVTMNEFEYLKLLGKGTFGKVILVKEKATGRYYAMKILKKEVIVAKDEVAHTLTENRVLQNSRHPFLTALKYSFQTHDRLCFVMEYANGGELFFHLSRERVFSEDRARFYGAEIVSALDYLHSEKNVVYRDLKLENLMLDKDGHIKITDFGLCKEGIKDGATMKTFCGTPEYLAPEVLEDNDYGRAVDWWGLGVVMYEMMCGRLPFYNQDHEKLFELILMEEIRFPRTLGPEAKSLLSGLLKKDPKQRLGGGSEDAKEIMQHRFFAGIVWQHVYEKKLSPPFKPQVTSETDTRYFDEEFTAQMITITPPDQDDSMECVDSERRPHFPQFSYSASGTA

Key:
[1] = molecular target: wild-type protease-activated receptor 2 (wt hPar2) (human) (UniProt P55085); assay: cell lysates applied on GST immobilized PH-domain columns (PAR2)
HA-tagged wt hPar1 [2] = molecular target: T1, HA-tagged wt hPar1 (human, UniProt P25116 42-425); assay: lysates of cells transfected with HA-tag-hPar1 applied on GST-PH-Akt
T1 construct: whole, on cells; Tested in lysates of transfected cells; also called HA-wt hPar1; HA-wthPar1; not shown: HA tag added downstream of the ATG start codon
T1 sequence (looked up): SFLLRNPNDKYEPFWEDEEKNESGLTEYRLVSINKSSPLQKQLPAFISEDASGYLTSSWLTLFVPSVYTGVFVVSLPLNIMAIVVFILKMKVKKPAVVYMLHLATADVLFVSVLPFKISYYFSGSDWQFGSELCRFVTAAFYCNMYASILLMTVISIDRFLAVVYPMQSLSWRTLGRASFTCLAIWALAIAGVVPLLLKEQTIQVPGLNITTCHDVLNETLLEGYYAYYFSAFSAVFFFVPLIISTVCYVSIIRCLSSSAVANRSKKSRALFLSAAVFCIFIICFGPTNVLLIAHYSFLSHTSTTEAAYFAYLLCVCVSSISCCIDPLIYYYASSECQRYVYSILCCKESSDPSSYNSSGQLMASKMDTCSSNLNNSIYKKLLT

HA-tagged wt hPar1 [3] = molecular target: T1, HA-tagged wt hPar1; assay: lysates with HA-PAR1 on GST PH-Akt
[4] = molecular target: wild-type protease-activated receptor 2 (wt hPar2) (human) (UniProt P55085); assay: cell lysates applied on GST immobilized PH-domain columns
HA-tagged wt hPar1 [5] = molecular target: T1, HA-tagged wt hPar1; assay: co-immunoprecipitation, HU cells transfected with wt hPar1
[6] = molecular target: T2, wild-type human protease-activated receptor 1 (wt hPar1) (human) (UniProt P25116); assay: co-immunoprecipitation after PAR1 activation
T2 sequence (looked up): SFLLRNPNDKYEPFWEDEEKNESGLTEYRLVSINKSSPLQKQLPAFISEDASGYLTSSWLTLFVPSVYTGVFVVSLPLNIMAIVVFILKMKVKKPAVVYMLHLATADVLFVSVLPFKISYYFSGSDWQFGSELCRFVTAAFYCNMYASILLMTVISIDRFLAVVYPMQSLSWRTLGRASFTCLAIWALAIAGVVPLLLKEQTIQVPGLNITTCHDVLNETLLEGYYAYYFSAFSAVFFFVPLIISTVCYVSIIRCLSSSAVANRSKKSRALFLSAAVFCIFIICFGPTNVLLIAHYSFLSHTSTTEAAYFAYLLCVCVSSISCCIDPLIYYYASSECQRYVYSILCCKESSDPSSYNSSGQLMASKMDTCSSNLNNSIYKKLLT

[7] = molecular target: GST-PAR2 C-tail wt (human) (UniProt P55085); assay: HCT-116 cell lysates (lacking Etk/Bmx) applied on GST beads of PAR2-C-tail
[8] = molecular target: wild-type protease-activated receptor 2 (wt hPar2) (human) (UniProt P55085); assay: co-immunoprecipitation before and after SLIGKV activation
[9] = molecular target: T3, GST-PAR1 C-tail (wt) (human) (UniProt P25116); assay: HCT-116 cell lysates (lacking Etk/Bmx) applied on GST beads of PAR1-C-tail
T3 sequence: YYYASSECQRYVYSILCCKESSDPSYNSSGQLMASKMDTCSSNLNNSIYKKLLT

[10] = molecular target: T4, purified wt PAR1 C-tail (cleaved from GST-C-tail with thrombin) (human); assay: purified C-tail re-applied on GST-Etk-PH domain column
T4 sequence: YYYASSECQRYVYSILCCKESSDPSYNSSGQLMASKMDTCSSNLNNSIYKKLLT

[11] = molecular target: T4, purified wt PAR1 C-tail (cleaved from GST-C-tail with thrombin) (human); assay: purified C-tail fragments applied on GST-PH Etk/Bmx column, anti-PAR1 blot
[12] = molecular target: GST-PAR2C-tail K356Z (printed K3356Z and K365Z) (human) (UniProt P55085); assay: Etk/Bmx expressing cell lysates on truncated GST-PAR2 C-tails
[13] = molecular target: T3, GST-PAR1 C-tail (wt) (human); assay: HEK293 lysates on GST-PAR1-C-tail columns, anti-Etk/Bmx blot
HA-tagged wt hPar1 [14] = molecular target: T1, HA-tagged wt hPar1; assay: co-immunoprecipitation with anti-HA, anti-Bmx blot, MCF7 clones after PAR1 activation
[15] = molecular target: wild-type protease-activated receptor 2 (wt hPar2) (human) (UniProt P55085); assay: co-immunoprecipitation, MCF7 cells transfected with hPar2 and Etk/Bmx
[16] = molecular target: T3, GST-PAR1 C-tail (wt) (human); assay: cell lysates applied on GST beads of PAR1-C-tail
[17] = molecular target: wild-type protease-activated receptor 2 (wt hPar2) (human) (UniProt P55085); assay: co-immunoprecipitation before and after SLIGKV activation, HEK-293T cells transfected with hPar2 and T7-tagged Etk/Bmx

Measured: binding

GST-PH-Akt (from UniProt P31749 1-123)
binds: [1] | HA-tagged wt hPar1 [2] | HA-tagged wt hPar1 [3] | [4]

Akt (PKB) (from UniProt P31749 1-480) (enzyme)
binds: HA-tagged wt hPar1 [5] | [6] | [7] | [8] | [9]

B1: GST-PH-Etk/Bmx (other, UniProt P51813 1-111, looked up)
chain: MDTKSILEELLLKRSQQKKKMSPNNYKERLFVLTKTNLSYYEYDKMKRGSRKGSIEIKKIRCVEKVNLEEQTPVERQYPFQIVYKDGLLYVYASNEESRSQWLKALQKEIR
notes: domain: PH domain; Made as in Chen et al. 2001; also called GST-Etk-PH; GST-Etk/Bmx; not shown: GST tag
binds: [10] | [11]

B2: Etk/Bmx (epithelial tyrosine kinase), wild type (enzyme, UniProt P51813 1-675, looked up)
chain: MDTKSILEELLLKRSQQKKKMSPNNYKERLFVLTKTNLSYYEYDKMKRGSRKGSIEIKKIRCVEKVNLEEQTPVERQYPFQIVYKDGLLYVYASNEESRSQWLKALQKEIRGNPHLLVKYHSGFFVDGKFLCCQQSCKAAPGCTLWEAYANLHTAVNEEKHRVPTFPDRVLKIPRAVPVLKMDAPSSSTTLAQYDNESKKNYGSQPPSSSTSLAQYDSNSKKIYGSQPNFNMQYIPREDFPDWWQVRKLKSSSSSEDVASSNQKERNVNHTTSKISWEFPESSSSEEEENLDDYDWFAGNISRSQSEQLLRQKGKEGAFMVRNSSQVGMYTVSLFSKAVNDKKGTVKHYHVHTNAENKLYLAENYCFDSIPKLIHYHQHNSAGMITRLRHPVSTKANKVPDSVSLGNGIWELKREEITLLKELGSGQFGVVQLGKWKGQYDVAVKMIKEGSMSEDEFFQEAQTMMKLSHPKLVKFYGVCSKEYPIYIVTEYISNGCLLNYLRSHGKGLEPSQLLEMCYDVCEGMAFLESHQFIHRDLAARNCLVDRDLCVKVSDFGMTRYVLDDQYVSSVGTKFPVKWSAPEVFHYFKYSSKSDVWAFGILMWEVFSLGKQPYDLYDNSQVVLKVSQGHRLYRPHLASDTIYQIMYSCWHELPEKRPTFQQLLSSIEPLREKDKH
binds: [12] | [13] | HA-tagged wt hPar1 [14] | [15] | [16]

B3: kinase-inactive Etk/Bmx (KQ) (enzyme, UniProt P51813 1-675, looked up)
chain: MDTKSILEELLLKRSQQKKKMSPNNYKERLFVLTKTNLSYYEYDKMKRGSRKGSIEIKKIRCVEKVNLEEQTPVERQYPFQIVYKDGLLYVYASNEESRSQWLKALQKEIRGNPHLLVKYHSGFFVDGKFLCCQQSCKAAPGCTLWEAYANLHTAVNEEKHRVPTFPDRVLKIPRAVPVLKMDAPSSSTTLAQYDNESKKNYGSQPPSSSTSLAQYDSNSKKIYGSQPNFNMQYIPREDFPDWWQVRKLKSSSSSEDVASSNQKERNVNHTTSKISWEFPESSSSEEEENLDDYDWFAGNISRSQSEQLLRQKGKEGAFMVRNSSQVGMYTVSLFSKAVNDKKGTVKHYHVHTNAENKLYLAENYCFDSIPKLIHYHQHNSAGMITRLRHPVSTKANKVPDSVSLGNGIWELKREEITLLKELGSGQFGVVQLGKWKGQYDVAVQMIKEGSMSEDEFFQEAQTMMKLSHPKLVKFYGVCSKEYPIYIVTEYISNGCLLNYLRSHGKGLEPSQLLEMCYDVCEGMAFLESHQFIHRDLAARNCLVDRDLCVKVSDFGMTRYVLDDQYVSSVGTKFPVKWSAPEVFHYFKYSSKSDVWAFGILMWEVFSLGKQPYDLYDNSQVVLKVSQGHRLYRPHLASDTIYQIMYSCWHELPEKRPTFQQLLSSIEPLREKDKH
binds: [13]

B4: T7-tagged Etk/Bmx (enzyme, UniProt P51813 1-675, looked up, not shown: small tags and cut ends)
chain: MDTKSILEELLLKRSQQKKKMSPNNYKERLFVLTKTNLSYYEYDKMKRGSRKGSIEIKKIRCVEKVNLEEQTPVERQYPFQIVYKDGLLYVYASNEESRSQWLKALQKEIRGNPHLLVKYHSGFFVDGKFLCCQQSCKAAPGCTLWEAYANLHTAVNEEKHRVPTFPDRVLKIPRAVPVLKMDAPSSSTTLAQYDNESKKNYGSQPPSSSTSLAQYDSNSKKIYGSQPNFNMQYIPREDFPDWWQVRKLKSSSSSEDVASSNQKERNVNHTTSKISWEFPESSSSEEEENLDDYDWFAGNISRSQSEQLLRQKGKEGAFMVRNSSQVGMYTVSLFSKAVNDKKGTVKHYHVHTNAENKLYLAENYCFDSIPKLIHYHQHNSAGMITRLRHPVSTKANKVPDSVSLGNGIWELKREEITLLKELGSGQFGVVQLGKWKGQYDVAVKMIKEGSMSEDEFFQEAQTMMKLSHPKLVKFYGVCSKEYPIYIVTEYISNGCLLNYLRSHGKGLEPSQLLEMCYDVCEGMAFLESHQFIHRDLAARNCLVDRDLCVKVSDFGMTRYVLDDQYVSSVGTKFPVKWSAPEVFHYFKYSSKSDVWAFGILMWEVFSLGKQPYDLYDNSQVVLKVSQGHRLYRPHLASDTIYQIMYSCWHELPEKRPTFQQLLSSIEPLREKDKH
binds: [17]
